Our source for the binding values is publication PMC5362245, “Depletion of Arabidopsis SC35 and SC35-like serine/arginine-rich proteins affects the transcription and splicing of a subset of genes”.

Results are given in words; binding and its absence hold for the method and conditions named. Binding seen in cells or lysates may run through a third protein. Binding can be weak; no strength is given. Tags and fused reporters may be left off the sequences shown.

In the assay the target is T1, NRPB4-NLUC (UniProt O48890).
T1 sequence: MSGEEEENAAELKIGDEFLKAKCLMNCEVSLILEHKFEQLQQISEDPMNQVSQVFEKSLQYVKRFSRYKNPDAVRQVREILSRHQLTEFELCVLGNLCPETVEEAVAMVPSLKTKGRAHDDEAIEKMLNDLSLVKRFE
Briefly: split reporter; firefly luciferase complementation imaging; NLUC and CLUC fusions transiently co-expressed in tobacco leaves, imaged about 48 h after infiltration with luciferin.
“SC35 fused to a firefly luciferase fragment (CLUC-SR) (Arabidopsis thaliana)”: the binding result was “binds”.

As to “SCL28 fused to a firefly luciferase fragment (CLUC-SR) (Arabidopsis thaliana)”, the binding entry is given as “binds”. “SCL30 fused to a firefly luciferase fragment (CLUC-SR) (Arabidopsis thaliana)”: the binding entry is “binds”. Consider “SCL30a fused to a firefly luciferase fragment (CLUC-SR) (Arabidopsis thaliana)”, for which the binding result was “binds”. Turning to “SCL33 fused to a firefly luciferase fragment (CLUC-SR) (Arabidopsis thaliana)”, the binding result is reported as “binds”.
